Results are given in words; binding and its absence hold for the method and conditions named. Binding seen in cells or lysates may run through a third protein. Binding can be weak; no strength is given. Where a sequence is shown, tags or fusion partners need not be part of it.
Target: T1, Psm3 with epitope tag, within the cohesin tetramer carrying TEV-cleavable Rad21 (fission yeast) (UniProt O42649)
T1 sequence: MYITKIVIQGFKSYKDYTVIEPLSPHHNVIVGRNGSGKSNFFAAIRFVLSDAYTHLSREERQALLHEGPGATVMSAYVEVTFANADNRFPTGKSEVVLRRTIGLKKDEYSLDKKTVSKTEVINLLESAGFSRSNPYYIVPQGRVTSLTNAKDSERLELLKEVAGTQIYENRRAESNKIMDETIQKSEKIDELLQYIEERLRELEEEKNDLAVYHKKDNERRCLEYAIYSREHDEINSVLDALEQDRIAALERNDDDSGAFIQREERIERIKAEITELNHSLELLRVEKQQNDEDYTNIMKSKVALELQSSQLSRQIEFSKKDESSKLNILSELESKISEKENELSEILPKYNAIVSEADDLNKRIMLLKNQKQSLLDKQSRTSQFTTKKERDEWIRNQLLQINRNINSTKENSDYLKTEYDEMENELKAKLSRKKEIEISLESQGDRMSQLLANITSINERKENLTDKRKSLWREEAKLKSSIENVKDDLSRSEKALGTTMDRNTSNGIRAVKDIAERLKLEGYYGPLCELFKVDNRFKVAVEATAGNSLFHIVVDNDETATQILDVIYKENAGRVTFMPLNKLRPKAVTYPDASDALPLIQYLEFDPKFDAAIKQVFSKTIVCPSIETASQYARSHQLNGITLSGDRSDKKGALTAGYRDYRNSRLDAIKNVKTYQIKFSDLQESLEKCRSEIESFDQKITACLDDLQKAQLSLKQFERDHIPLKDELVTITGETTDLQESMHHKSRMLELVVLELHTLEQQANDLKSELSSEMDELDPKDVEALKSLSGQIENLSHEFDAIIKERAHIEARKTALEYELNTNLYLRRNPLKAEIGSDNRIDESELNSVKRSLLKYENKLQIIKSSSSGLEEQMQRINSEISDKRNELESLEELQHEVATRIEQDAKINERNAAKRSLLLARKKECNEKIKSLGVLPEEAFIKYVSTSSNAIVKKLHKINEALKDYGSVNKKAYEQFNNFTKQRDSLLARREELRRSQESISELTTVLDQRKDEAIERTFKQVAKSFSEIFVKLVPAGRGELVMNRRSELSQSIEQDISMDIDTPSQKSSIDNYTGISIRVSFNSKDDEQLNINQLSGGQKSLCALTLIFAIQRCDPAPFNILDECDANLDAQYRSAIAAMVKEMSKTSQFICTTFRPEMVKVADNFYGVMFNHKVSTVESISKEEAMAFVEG
Assay: co-IP; Rad21N dissociation: cohesin tetramer with TEV-cleavable Rad21 incubated with or without Pds5-Wapl or Mis4-Ssl3 and ATP, ADP or ATP-γ-S, Rad21 cut by TEV protease, cohesin immunoprecipitated via the epitope tag on Psm3; Rad21 fragments by western blotting; both purified

| Substance | binding |
| --- | --- |
| Rad21N, N-terminal TEV cleavage product of Rad21 (fission yeast) (domain or fragment) | binds |
| Rad21C, C-terminal TEV cleavage product of Rad21 (fission yeast) (domain or fragment) | binds |

From publication PMC4701713, “DNA Entry into and Exit out of the Cohesin Ring by an Interlocking Gate Mechanism” (Cell, 2015)
